Results taken from article PMC7031342.
These are yes or no findings as the source states them, for the method shown. In cells and extracts the contact can be indirect. Some binding calls cover weakened binding; strength is not graded here. Blank lines part the entries; values can stand above or below the substance they belong to.

Amino acid sequences for entries named in this document (tags omitted). A change or cut given only in a name is not applied to a line headed by its entry. Chains listed by the source or under a name are the forms on record and can include a tag or linker.
UniProt Q8BMK4: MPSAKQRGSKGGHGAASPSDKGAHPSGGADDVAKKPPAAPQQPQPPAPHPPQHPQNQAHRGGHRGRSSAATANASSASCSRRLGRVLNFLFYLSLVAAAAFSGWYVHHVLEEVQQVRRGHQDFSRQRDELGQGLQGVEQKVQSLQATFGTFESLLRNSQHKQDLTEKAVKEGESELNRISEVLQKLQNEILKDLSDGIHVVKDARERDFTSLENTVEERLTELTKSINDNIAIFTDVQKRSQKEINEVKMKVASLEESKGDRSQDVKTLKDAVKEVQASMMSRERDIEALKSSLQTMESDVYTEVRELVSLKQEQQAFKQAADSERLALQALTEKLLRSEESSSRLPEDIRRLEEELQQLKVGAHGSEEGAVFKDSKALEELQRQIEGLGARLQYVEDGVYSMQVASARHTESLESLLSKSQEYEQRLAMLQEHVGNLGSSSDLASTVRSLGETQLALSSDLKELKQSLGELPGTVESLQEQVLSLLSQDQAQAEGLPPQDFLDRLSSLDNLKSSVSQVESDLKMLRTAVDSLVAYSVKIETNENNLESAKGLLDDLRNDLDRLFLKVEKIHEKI
UniProt Q00765: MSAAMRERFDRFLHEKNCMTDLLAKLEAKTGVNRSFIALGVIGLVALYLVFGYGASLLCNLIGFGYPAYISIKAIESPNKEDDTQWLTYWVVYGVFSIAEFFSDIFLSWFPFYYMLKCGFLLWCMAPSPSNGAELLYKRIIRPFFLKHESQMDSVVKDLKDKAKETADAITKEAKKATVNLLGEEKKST
Myc-RTN4 (Nogo-B) (Q9NQC3-2, form named): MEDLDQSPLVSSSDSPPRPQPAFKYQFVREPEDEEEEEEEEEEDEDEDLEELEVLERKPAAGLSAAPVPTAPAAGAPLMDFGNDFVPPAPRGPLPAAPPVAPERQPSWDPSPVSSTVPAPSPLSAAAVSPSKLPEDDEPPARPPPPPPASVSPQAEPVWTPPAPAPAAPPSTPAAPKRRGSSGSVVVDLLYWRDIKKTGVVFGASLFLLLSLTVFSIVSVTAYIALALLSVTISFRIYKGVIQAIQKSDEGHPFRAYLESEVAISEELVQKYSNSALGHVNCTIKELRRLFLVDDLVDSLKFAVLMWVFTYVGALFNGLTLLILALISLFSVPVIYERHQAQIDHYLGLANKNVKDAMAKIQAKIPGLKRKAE
UniProt Q60870: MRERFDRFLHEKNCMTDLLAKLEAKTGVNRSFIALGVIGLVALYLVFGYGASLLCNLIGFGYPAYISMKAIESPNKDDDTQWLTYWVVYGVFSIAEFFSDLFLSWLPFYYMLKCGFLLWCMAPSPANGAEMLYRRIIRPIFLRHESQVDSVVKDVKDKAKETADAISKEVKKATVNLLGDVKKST
UniProt Q07065: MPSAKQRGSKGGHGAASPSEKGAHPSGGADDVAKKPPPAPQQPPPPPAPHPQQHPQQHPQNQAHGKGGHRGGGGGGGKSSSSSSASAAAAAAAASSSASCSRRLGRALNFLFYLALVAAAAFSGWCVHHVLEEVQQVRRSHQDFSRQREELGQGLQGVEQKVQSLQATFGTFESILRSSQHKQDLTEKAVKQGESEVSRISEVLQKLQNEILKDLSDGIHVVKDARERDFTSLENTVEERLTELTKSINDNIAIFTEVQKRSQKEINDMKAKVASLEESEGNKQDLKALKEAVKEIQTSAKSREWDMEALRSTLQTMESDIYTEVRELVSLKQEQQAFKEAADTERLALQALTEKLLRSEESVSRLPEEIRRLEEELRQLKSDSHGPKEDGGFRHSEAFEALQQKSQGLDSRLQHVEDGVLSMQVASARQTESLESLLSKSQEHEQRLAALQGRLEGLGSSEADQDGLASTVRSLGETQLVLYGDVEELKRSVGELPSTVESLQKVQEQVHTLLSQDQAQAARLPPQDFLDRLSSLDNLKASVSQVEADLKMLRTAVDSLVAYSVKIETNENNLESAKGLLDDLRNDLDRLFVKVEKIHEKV

Tests used:
[1] = molecular target: CKAP4 (mouse heart) (mouse (endogenous in cardiac microsomes)) (UniProt Q8BMK4); test: co-IP; adult mouse cardiac (ventricular) microsomes; immunoprecipitation with anti-REEP5, anti-RTN4/Nogo-A/B, anti-ATL3 or anti-CKAP4 antibody, immunoblot
[2] = molecular target: T1, ATL3 (mouse heart) (mouse (endogenous in cardiac microsomes)) (UniProt Q91YH5); test: as above
T1 sequence: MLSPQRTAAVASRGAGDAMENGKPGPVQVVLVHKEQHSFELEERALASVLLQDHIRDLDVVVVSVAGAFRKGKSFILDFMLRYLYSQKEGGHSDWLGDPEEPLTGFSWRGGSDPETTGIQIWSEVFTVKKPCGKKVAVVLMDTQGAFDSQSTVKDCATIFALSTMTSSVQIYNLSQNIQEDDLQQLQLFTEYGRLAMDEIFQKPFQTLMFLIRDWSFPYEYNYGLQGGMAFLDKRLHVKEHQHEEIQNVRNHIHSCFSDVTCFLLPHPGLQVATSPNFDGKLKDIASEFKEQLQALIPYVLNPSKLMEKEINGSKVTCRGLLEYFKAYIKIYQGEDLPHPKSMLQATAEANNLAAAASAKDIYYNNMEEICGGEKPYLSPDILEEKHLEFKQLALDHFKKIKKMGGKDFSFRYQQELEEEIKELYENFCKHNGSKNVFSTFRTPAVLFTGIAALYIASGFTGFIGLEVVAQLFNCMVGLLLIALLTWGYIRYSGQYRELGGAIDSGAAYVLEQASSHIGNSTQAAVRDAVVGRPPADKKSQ

[3] = molecular target: T2, Nogo-B (mouse heart) (mouse (endogenous in cardiac microsomes)) (UniProt Q99P72); test: as above
T2 sequence: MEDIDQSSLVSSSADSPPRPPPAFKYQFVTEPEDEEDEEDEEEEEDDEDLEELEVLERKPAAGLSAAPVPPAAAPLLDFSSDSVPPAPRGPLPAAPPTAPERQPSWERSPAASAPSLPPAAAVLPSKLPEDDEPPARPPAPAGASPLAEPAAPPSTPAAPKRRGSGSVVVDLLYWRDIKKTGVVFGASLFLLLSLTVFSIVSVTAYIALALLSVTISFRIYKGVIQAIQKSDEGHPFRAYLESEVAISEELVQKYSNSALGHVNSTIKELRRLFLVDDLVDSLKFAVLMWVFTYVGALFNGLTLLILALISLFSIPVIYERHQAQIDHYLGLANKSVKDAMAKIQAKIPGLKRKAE

[4] = molecular target: T3, Nogo-A (mouse heart) (mouse (endogenous in cardiac microsomes)) (UniProt Q99P72); test: as above
T3 sequence: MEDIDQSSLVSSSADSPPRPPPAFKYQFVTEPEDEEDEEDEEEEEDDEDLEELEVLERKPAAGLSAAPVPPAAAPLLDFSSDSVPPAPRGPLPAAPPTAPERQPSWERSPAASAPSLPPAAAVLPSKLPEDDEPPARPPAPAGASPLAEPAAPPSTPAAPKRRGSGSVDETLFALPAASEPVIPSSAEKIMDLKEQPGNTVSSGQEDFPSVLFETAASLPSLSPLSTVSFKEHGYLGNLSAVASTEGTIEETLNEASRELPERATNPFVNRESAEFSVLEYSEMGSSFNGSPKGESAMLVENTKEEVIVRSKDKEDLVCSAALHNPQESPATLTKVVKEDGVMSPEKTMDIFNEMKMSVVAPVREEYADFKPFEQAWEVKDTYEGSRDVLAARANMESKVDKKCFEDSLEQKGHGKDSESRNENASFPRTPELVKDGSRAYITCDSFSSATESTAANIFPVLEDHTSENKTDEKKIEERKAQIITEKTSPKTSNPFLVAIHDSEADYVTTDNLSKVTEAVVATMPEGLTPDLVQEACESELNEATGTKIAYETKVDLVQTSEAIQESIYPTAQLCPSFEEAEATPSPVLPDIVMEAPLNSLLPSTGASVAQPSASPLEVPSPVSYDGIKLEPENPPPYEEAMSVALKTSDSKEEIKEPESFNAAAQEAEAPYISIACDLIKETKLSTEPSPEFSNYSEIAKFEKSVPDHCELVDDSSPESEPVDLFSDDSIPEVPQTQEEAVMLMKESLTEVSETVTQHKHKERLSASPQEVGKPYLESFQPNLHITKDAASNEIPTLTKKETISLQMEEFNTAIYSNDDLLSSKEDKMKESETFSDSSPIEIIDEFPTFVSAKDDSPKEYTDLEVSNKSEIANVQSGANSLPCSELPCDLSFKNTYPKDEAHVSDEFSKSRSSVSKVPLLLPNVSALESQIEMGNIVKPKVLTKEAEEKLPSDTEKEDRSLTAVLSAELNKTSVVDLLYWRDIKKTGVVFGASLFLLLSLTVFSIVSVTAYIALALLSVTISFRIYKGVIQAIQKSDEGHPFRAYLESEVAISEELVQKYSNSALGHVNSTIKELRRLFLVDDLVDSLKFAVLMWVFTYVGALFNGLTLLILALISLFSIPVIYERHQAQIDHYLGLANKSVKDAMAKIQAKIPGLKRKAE

REEP5-V5-6xHis (human) = REEP5-V5-6xHis (human) (UniProt Q00765); test: co-IP; HEK293 cells overexpressing CnVA-REEP5 and REEP5-V5-6xHis; immunoprecipitation with anti-V5 antibody, immunoblot
Myc-RTN4 (Nogo-B) = Myc-RTN4 (Nogo-B) (UniProt Q9NQC3); test: co-IP; HEK293 cells cotransfected with CnVA-REEP5 and Myc-RTN4 (Nogo-B); immunoprecipitation with anti-REEP5 or anti-Nogo-A/B antibody, immunoblot
[5] = molecular target: CnVA-tagged (StrepII-6xHis, 3xFlag) REEP5 (human) (UniProt Q00765); test: as above
[6] = molecular target: CnVA-tagged (StrepII-6xHis, 3xFlag) REEP5 (human) (UniProt Q00765); test: pull-down; nickel-His purification of CnVA-REEP5 from transfected HEK293 cells; immunoblots of the eluate

binding [1]: binds | binding [2]: binds | binding [3]: binds | binding [4]: binds
Substance: endogenous mouse REEP5 (from UniProt Q60870 1-185)

binding (REEP5-V5-6xHis (human)): binds | binding (Myc-RTN4 (Nogo-B)): binds
Substance: CnVA-tagged (StrepII-6xHis, 3xFlag) REEP5 (from UniProt Q00765-1 1-189)

binding [5]: binds
Substance: Myc-RTN4 (Nogo-B) (from UniProt Q9NQC3-2 1-373)

binding [6]: binds
Substance: CKAP4 (HEK293) (from UniProt Q07065 1-602)
